# Data source: PubChem BioAssay AID652243 (Drosophila RNAi Screening Center, 2013)
# Assay: 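Fly genes required for human androgen receptor driven transcription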 (primary screen)
# Cell system: Drosophila S2R+ cells
# Reagents: long dsRNA against Drosophila genes
# Duration: 72 h (48 h, then 24 h hormone)
# Challenge: synthetic androgen R1881 at 10 nM for 24 h
# Read-out: 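Per-well raw luminescence of the androgen-driven firefly reporter and of the Renilla control, two replicates each, without normalisation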
# Direction: firefly reporter light: higher = more light from androgen-responsive reporter; Renilla control light: higher = more constitutive control signal (cell number, transfection)
# Call rule: 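Across duplicate plates, a knock-down whose log firefly/Renilla ratio shifted a set fold down or up from the GFP/LacZ control mean was a hit; the downward cut appears as both 1.5 and 3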
# Meaning of the calls: active = hit: reporter lowered or raised; inactive = no hit
# The deposit covers about 24,000 reagents; shown is an unselected part of those with a known target gene and a result. Over the whole deposit, 246 (1%) got an active call. 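Plates not normalised; calls are printed but the firefly/Renilla ratio behind them is not deposited; fold cut for lowering reported inconsistently.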 Raw values vary from plate to plate and are shown uncorrected. A number with no mark means an inactive call. The numbers tell different reagents against one gene apart. A plus sign joins genes that one reagent is predicted to hit. Reagent sequences are not shown. Not given: the amount of reagent.
The opening 2 records as a preview:
gene,reagent,"firefly reporter light, replicate 1","firefly reporter light, replicate 2","Renilla control light, replicate 1","Renilla control light, replicate 2"
Rad23,1,1.10e5,74741,5.63e5,6.89e5
Mat1 (Menage a trois 1),1,2.46e5,1.44e5,1.49e6,1.13e6

The listing, repeating the preview:
gene,reagent,"firefly reporter light, replicate 1","firefly reporter light, replicate 2","Renilla control light, replicate 1","Renilla control light, replicate 2"
Rad23,1,1.10e5,74741,5.63e5,6.89e5
Mat1 (Menage a trois 1),1,2.46e5,1.44e5,1.49e6,1.13e6
Mat1 (Menage a trois 1),2,2.57e5,3.53e5,8.70e5,9.97e5
CG40005 (retired record) + cta,1,5.87e5,6.69e5,8.31e5,6.34e5
CG15712,1,1.36e5,1.15e5,2.72e6,2.72e6
Rab30,1,1.48e5,1.38e5,1.97e6,1.83e6
Rab30,2,2.60e5,4.28e5,4.84e5,5.94e5
Suv3 (Suv3 helicase),1,24426,25827,1.29e5,2.86e5
CG31729,1,8.08e5,1.32e6,1.46e6,1.99e6
CG31729,2,2.09e5,1.88e5,2.06e6,2.59e6
CG31729,3,3.26e5,2.60e5,8.34e5,8.19e5
Lcp4 (Larval cuticle protein 4),1,4.98e5,4.11e5,2.79e6,1.94e6
Lcp4 (Larval cuticle protein 4),2,3.47e5,5.02e5,3.26e5,4.64e5
lectin-46Cb,1,3.09e5,2.69e5,1.95e6,1.66e6
lectin-46Cb,2,4.38e5,3.99e5,5.91e5,6.37e5
fliI (flightless I),1,5.09e5,4.17e5,2.87e6,3.47e6
CG14237,1,5.80e5,6.60e5,1.57e6,1.42e6
CG31200,1,2.72e5,2.45e5,2.94e6,3.49e6
Smu1 (Smu1 spliceosomal factor),1,88166,49196,5.82e5,4.29e5
f (forked),1,5.71e5,8.12e5,2.46e6,3.16e6
f (forked),2,1.97e5,2.02e5,3.32e6,2.61e6
f (forked),3,3.06e5,3.24e5,2.88e6,2.69e6
f (forked),4,5.74e5,3.54e5,6.57e5,5.19e5
f (forked),5,5.37e5,5.29e5,1.46e6,1.61e6
CG11112,1,4.09e5,4.45e5,1.82e6,1.51e6
CG11112,2,9.29e5,1.01e6,9.55e5,1.17e6
gcl (germ cell-less),1,8.57e5,7.02e5,1.14e6,1.12e6
gcl (germ cell-less),2,8.21e5,6.84e5,1.58e6,1.21e6
CG32982,1,2.30e5,2.70e5,1.72e6,1.74e6
CG32982,2,1.28e5,1.53e5,1.08e6,1.31e6
CG32982,3,1.01e6,6.08e5,1.59e6,1.52e6
Prp16 (pre-mRNA processing factor 16),1,35878,34161,3.81e5,3.69e5
Prp16 (pre-mRNA processing factor 16),2,3.34e5,3.97e5,3.88e6,4.37e6
Atox1 (Antioxidant 1 copper chaperone),1,4.32e5,9.42e5,8.01e5,1.15e6
olf413,1,1.78e5,1.70e5,3.14e5,2.82e5
olf413,2,7.24e5,6.53e5,2.35e6,1.72e6
olf413,3,1.75e5,1.67e5,1.77e6,1.84e6
olf413,4,6.11e5,1.00e6,1.22e6,1.90e6
CG9004,1,73816,99543,1.17e6,1.63e6
CG1737,1,3.10e5,3.22e5,1.39e6,1.89e6
CG1737,2,9.27e5,7.88e5,1.10e6,1.21e6
